Measurements from patent publication US20130143299A1.
No constants are given. Whether binding was seen depends on the method and setting. Binding seen in cells or lysates may run through a third protein. Some binding calls cover weakened binding; strength is not graded here. Where a sequence is shown, tags or fusion partners need not be part of it.

Protein sequences, listed by entry. Tags and fused reporters are not part of them. Residues count along the entry.
UniProt P28482, residues 2-360: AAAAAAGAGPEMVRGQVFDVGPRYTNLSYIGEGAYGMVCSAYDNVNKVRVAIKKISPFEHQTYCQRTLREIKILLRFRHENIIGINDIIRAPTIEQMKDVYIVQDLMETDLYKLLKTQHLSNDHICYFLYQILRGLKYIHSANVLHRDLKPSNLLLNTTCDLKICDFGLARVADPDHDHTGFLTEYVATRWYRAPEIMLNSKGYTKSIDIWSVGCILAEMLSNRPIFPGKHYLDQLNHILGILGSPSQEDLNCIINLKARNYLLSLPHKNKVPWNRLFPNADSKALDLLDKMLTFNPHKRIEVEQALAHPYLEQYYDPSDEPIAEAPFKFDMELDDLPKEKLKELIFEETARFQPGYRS
UniProt P27361, residues 2-379: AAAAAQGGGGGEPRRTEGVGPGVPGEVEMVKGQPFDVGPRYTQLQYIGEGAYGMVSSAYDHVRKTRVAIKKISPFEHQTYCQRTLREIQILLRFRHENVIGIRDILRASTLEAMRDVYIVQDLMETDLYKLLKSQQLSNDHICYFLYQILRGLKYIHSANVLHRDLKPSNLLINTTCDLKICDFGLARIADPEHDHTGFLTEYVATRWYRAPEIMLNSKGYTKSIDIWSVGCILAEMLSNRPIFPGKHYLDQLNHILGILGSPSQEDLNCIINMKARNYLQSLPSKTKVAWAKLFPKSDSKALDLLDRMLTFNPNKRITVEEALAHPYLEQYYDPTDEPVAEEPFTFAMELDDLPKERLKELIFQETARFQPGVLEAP

Experiments:
[1] = biological target: endogenous Erk2 of HEK293T cells (UniProt P28482); test: His-tag pull-down (TALON resin) from lysate of HEK293T cells expressing the V5/His clone; Western blot with anti-ERK antibody
[2] = biological target: endogenous Erk1 of HEK293T cells (UniProt P27361); test: as above
[3] = biological target: endogenous Erk2 of HEK293T cells (UniProt P28482); test: His-tag (TALON resin) pull-down from transfected HEK293T cells, Western blot with anti-ERK antibody
[4] = biological target: endogenous Erk1 of HEK293T cells (UniProt P27361); test: as above

Row | binding [1] | binding [2] | binding [3] | binding [4] | Binder
1 | binds | binds | binds | binds | Erk2 clone N expressed from pcDNA3.1-RNF8-V5/His in HEK293T cells (designed binder, not shown: small tags and cut ends) GEPGFFVTGDRAGGRSWCLRRVGMSAGWLLLEDGCEVTVGWGGGVTYQLVSKGYLWQRRTNHCVLKQNPEGQWTIMDNKVLGGVWLNRARLEPLRVYSIHQGDYIQLGLRSLLLENAEYEYEVTEEDWETIYPCLSPKNDQMIEKN
2 | binds | binds | binds | binds | Erk2 clone C expressed from pcDNA3.1-RNF8-V5/His in HEK293T cells (designed binder, not shown: small tags and cut ends) GEPGFFVTGDRAGGRSWCLRRVGMSAGWLLLEDGCEVTVGFGTGVTYQLVSKYLPSWFTYNHCVLKQNPEGQWTIMDNKSLTGVWLNRARLEPLRVYSIHQGDYIQLGAMTTSYENAEYEYEVTEEDWETIYPCLSPKNDQMIEKN
3 | binds | binds | binds | binds | Erk2 clone A expressed from pcDNA3.1-RNF8-V5/His in HEK293T cells (designed binder, not shown: small tags and cut ends) GEPGFFVTGDRAGGRSWCLRRVGMSAGWLLLEDGCEVTVGFGTGVTYQLVSKYLPSWFTYNHCVLKQNPEGQWTIMDNKSLTGVWLNRARLEPLRVYSIHQGDYIQLGGIWSDLENAEYEYEVTEEDWETIYPCLSPKNDQMIEKN
